The values below come from publication doi:10.1101/2024.04.25.591231.

The test has as its target T1, Arabidopsis thaliana FIDGETIN-LIKE-1 (FIGL1) (Arabidopsis thaliana) (UniProt F4JEX5).
T1 sequence: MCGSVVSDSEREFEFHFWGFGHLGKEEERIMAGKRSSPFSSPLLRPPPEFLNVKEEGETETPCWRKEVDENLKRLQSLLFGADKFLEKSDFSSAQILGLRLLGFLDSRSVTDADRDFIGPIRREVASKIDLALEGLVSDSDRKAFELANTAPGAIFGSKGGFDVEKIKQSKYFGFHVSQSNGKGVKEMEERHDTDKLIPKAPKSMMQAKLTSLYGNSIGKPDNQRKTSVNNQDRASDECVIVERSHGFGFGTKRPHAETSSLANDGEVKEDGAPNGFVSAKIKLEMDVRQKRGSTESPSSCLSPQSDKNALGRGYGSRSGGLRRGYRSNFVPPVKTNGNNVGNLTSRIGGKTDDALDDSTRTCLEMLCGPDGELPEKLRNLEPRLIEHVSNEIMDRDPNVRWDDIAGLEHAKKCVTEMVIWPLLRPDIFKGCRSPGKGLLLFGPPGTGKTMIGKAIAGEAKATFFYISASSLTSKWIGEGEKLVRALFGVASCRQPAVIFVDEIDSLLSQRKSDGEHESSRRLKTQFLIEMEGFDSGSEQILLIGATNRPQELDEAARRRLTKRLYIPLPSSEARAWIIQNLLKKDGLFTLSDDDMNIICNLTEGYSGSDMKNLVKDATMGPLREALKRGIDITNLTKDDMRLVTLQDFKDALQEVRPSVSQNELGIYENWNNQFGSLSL
The test can be described thus: two-hybrid.

Results are given in words; binding and its absence hold for the method and conditions named. Some entries that bind do so weakly or less than the wild type.

B1: Arabidopsis thaliana XRCC2 (protein, UniProt Q682D3 1-372)
chain: MGDDEARSWIRGDETAKQMLSRVLKDRAFLLIPPLHRVPLRAGNVVEITGASTSAKTQILIQAAISCILPKTWNGIHYGGLGKLVLFLDLDCRFDVLRLSQMLKHRLLQANWLGNGAWWQLEESNVKSCKSAEEKTKTVFDEELYASCMKRFLYVRCYDSLELLSSLKTLHYRIQQQEACGSQVGVLMIDSIGAFHWTDRLSSSLALETHNRKSLSLTNVVETIVQELKKLLLVHSLVVLATKGTIYEEKYPANENNRKVSSNDHFSGNVASKAQQPPFREFMPSSWQAFVTHKIIIRKSADYQSLQTGQQNLLAYSLEWLQPQLSRIDRFIVDDVRKLTTIKPFYSKLLLIYIVIPASSSHAVWYCHCLVT
With B1, the binding result is on record as “binds”.
